Assay results reported in US20220048878A1, “IMPROVEMENT IN OR RELATING TO ORGANIC COMPOUNDS” (GIVAUDAN SA, priority 2018, published 2022).

Experiments:
[1] = background statement; cited from earlier work
Odor description = settings: applicant's evaluation, single isomers after preparative or chiral GC

Structure (SMILES)	Odor profile of known fragrance ingredients [1]	Odor description (Odor description)	Odor description (Odor description; listed as 1′a)
CC(C)=CC1CC(C)CCO1 (racemic) [Rose Oxide, 4-methyl-2-(2-methylprop-1-en-1-yl)tetrahydro-2H-pyran]	floral, rosy, green natural odor profile with some metallic side notes		
CCC(C)=C[C@@H]1C[C@H](C)CCO1 (relative stereo) [rel-(2S,4R)-4-methyl-2-(2-methylbut-1-en-1-yl)tetrahydro-2H-pyran]		substantially similar odor characteristics (odor profile and evaporation profile) as Rose Oxide	
CC/C(C)=C/[C@H]1C[C@H](C)CCO1 [(2R,4R)-4-methyl-2-((E)-2-methylbut-1-en-1-yl)tetrahydro-2H-pyran]		slightly floral, rose oxide, very weak	
CC/C(C)=C\[C@H]1C[C@H](C)CCO1 [(2R,4R)-4-methyl-2-((Z)-2-methylbut-1-en-1-yl)tetrahydro-2H-pyran]		very weak, almost odorless	
CC/C(C)=C/[C@H]1C[C@@H](C)CCO1 [(2R,4S)-4-methyl-2-((E)-2-methylbut-1-en-1-yl)tetrahydro-2H-pyran]		very weak, almost odorless	
CC/C(C)=C\[C@H]1C[C@@H](C)CCO1 [(2R,4S)-4-methyl-2-((Z)-2-methylbut-1-en-1-yl)tetrahydro-2H-pyran]		very weak, almost odorless	
CC/C(C)=C/[C@@H]1C[C@H](C)CCO1 [(2S,4R)-4-methyl-2-((E)-2-methylbut-1-en-1-yl)tetrahydro-2H-pyran]		rosy, rose oxide, metallic, weak	
CC/C(C)=C\[C@@H]1C[C@H](C)CCO1 [(2S,4R)-4-methyl-2-((Z)-2-methylbut-1-en-1-yl)tetrahydro-2H-pyran]		rosy, rose oxide, metallic, strong	main odor vector; also recorded: strong rosy, rose oxide, metallic odor
CC/C(C)=C/[C@@H]1C[C@@H](C)CCO1 [(2S,4S)-4-methyl-2-((E)-2-methylbut-1-en-1-yl)tetrahydro-2H-pyran]		very weak, almost odorless	
CC/C(C)=C\[C@@H]1C[C@@H](C)CCO1 [(2S,4S)-4-methyl-2-((Z)-2-methylbut-1-en-1-yl)tetrahydro-2H-pyran]		very weak, almost odorless	
CC(C)CC1CC(C)CCO1 (stereo not shown) [Dihydroroseoxide, 2-isobutyl-4-methyltetrahydro-2H-pyran]	too fresh terpenic-terpineol, and less rosy-fruity		
CC1CCOC(C=O)C1 (stereo not shown) [Example 1a, 4-Methyltetrahydro-2H-pyran-2-carbaldehyde]		green, fatty, trans-2-hexenal, oily	
CCC(C)=CC1CC(C)CCO1 (stereo not shown) [Example 1b, 4-methyl-2-(2-methylbut-1-en-1-yl)tetrahydro-2H-pyran]		metallic, mineral, rosy, rose oxide	
C[C@@H]1CCOC(C=O)C1 (stereo partly drawn) [Example 2a, (4R)-4-methyltetrahydro-2H-pyran-2-carbaldehyde]		green, fatty, oily	
CCC(C)=CC1CC(C)CCO1 (stereo not drawn) [cis-E]		rosy, rose oxide, metallic, weak	
CCC(C)=CC1CC(C)CCO1 (stereo not drawn) [cis-Z]		rosy, rose oxide, metallic, strong	
CCC(C)=CC1CC(C)CCO1 (stereo not drawn) [trans-E]		slightly floral, rose oxide, very weak	
CCC(C)=CC1CC(C)CCO1 (stereo not drawn) [trans-Z]		very weak, almost odorless	

Entries after “also recorded” stand apart in the source; their conditions may differ. Some compounds share one wording; it may come from a single statement.
